The source of these data is patent US20260224761A1 (priority 2023, published 2026).

For some of these results: HELM strings list residues between dots; [ac] is acetyl, [am] amide, other brackets name non-standard units.

Data set [1] in a line: general procedure: Fmoc solid-phase peptide synthesis; Fmoc-Glu(OtBu)-preloaded Wang resin; HOAt / HATU, DIPEA (Sulfo-Cy5 conjugation in solution). Conditions: whole synthesis, scale 0.33 mmol.
Data set [2] in a line: general procedure: Fmoc solid-phase peptide synthesis; Fmoc-Glu(OtBu)-preloaded Wang resin; 2-CTC resin; HOAt / HATU, DIPEA (Sulfo-Cy5 conjugation in solution). Conditions: conjugation step.

Ac-mas3-k-y-nal-k-Sub-KuE: the “final HPLC purity” value in data set [1] (HPLC) is recorded as over 95%. Besides, the isolated mass in data set [1] came to 10.3 mg.
On to “PEPTIDE1{[AcSCH2CO].[dS].[dS].[dS].[dK].[dY].[D-2Nal].[dK]}|CHEM1{[SulfoCy5]}|CHEM2{[Sub-KuE]}$PEPTIDE1,CHEM1,5:R3-1:R2|PEPTIDE1,CHEM2,8:R3-1:R2$$$V2.0”, for which the “final HPLC purity” value in data set [2] (HPLC) is given as over 95%. For the same substance, the conjugation yield in data set [2] (based on starting peptide) came to 12%.
